# Percent effect of library compounds

Amino acid sequences for entries named in this document (tags omitted).
UniProt P9WPC5, whole entry: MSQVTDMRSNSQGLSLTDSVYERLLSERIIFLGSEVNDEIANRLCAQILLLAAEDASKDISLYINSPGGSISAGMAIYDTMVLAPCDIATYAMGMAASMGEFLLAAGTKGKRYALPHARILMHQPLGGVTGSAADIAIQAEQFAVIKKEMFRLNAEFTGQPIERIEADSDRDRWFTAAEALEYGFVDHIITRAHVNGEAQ
UniProt P9WPC3, whole entry partner: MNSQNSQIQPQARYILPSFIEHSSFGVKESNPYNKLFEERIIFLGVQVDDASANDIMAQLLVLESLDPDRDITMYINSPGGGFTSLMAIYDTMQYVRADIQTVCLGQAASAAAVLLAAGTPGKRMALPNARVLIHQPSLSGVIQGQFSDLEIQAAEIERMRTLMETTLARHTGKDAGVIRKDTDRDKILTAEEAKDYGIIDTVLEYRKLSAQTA
UniProt P9WNZ1, whole entry: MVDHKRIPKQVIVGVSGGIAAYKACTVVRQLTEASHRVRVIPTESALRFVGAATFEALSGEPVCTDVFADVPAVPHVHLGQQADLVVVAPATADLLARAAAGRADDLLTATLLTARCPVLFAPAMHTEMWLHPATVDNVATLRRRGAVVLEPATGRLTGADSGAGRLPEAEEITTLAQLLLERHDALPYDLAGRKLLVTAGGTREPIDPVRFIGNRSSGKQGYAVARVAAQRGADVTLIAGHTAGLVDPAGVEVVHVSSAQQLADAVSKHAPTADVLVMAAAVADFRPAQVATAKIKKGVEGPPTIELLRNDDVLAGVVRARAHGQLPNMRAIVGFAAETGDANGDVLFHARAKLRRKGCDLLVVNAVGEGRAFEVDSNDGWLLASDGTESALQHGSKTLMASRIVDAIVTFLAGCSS

ClpP1P2: 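ClpP1P2, Mycobacterium tuberculosis (UniProt P9WPC5 and UniProt P9WPC3). Protease assay of ClpP1P2, read by the AMC dye that it sets free. Concentration: 50 µM. Direction is inferred from only a few compounds that gave an IC50; most scored high, so higher reads as stronger inhibition. Most other retested compounds had strongly negative values. Size under these conditions: about 69,000 compounds, about 10 of them at 50% or above in at least one test.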
CoaBC: 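Enzyme assay of CoaBC with a phosphate dye (Biomol Green) read at 650 nm. Target: Coenzyme A biosynthesis protein CoaBC, Mycobacterium tuberculosis (UniProt P9WNZ1). Compounds at 30 µM. Higher reads as stronger inhibition, judged from the few compounds that gave an IC50. Most strong results did not repeat in a second test. Of about 67,000 compounds tested this way, about 40 (0.06%) reached 50% or more in at least one test.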
Toxoplasma: 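Assay of Toxoplasma gondii numbers, read through their beta-galactosidase reporter with a colour substrate. Concentration: 10 µM. The record gives no direction; the compounds picked for IC50 retests had high values, so higher reads as fewer parasites. Of about 67,000 compounds tested this way, about 260 (0.38%) reached 50% or more in at least one test.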

The filed quantity is “Percent Effect” (%).
The controls that fix the scale are not given in the record; negative values are as filed.
Compounds were drawn at random from those tested, without regard to their results.
A dash means the value is not listed here; it may have been measured.

structure	ClpP1P2	CoaBC	Toxoplasma
COc1cc(CCC(=O)N2CCC(c3cnccn3)CC2)on1	-14.95%	-11.34%	13.37%
Cc1noc(C)c1CN1CC[C@H]2OCC[C@@]2(C(=O)N(C)C)C1	-3.605%	3.448%	-
CN(Cc1ccco1)C(=O)C1=NN(C)C(=O)CC1	-3.546%	4.685%	-23.91%
CNC(=O)C1CN(C(C)C)CCN1c1ncccn1 (stereo not given)	-21.73%	3.641%	16.08%
c1ccc(CN2C[C@H]3CC[C@@H]2CN(Cc2nnc(C4CC4)o2)C3)cc1	-6.461%	1.737%	-
Cc1cc(C(=O)Nc2cccn(Cc3ccc(F)cc3)c2=O)no1	-5.218%	11.45%	-0.7392%
Cc1nn(C)c(C)c1S(=O)(=O)N(C)Cc1nn(C)c(Cl)c1Cl	-3.371%	-3.259%	-0.8813%
O=C(O)C(F)(F)F.[H][C@@]12CCN(S(C)(=O)=O)[C@]1([H])CC[C@@H](C(=O)NCCc1ccccn1)O2	-	-	15.04%
Cc1cnn(CC2CCCCN2CCCS(C)(=O)=O)c1 (stereo not given)	-15.08%	3.655%	-4.206%
CNC(=O)C(C)(C)N(C)C(=O)c1cc(COc2ccccc2OC)[nH]n1	-6.725%	-3.686%	-12.11%
CC(C)(C)OC(=O)N1CCC(C(=O)NCCNc2ncccn2)CC1	0.8196%	16.45%	-28.13%
COCc1cnc2n1CCN(C1CCCC1)C2C (stereo not given)	2.417%	-14.52%	-
CCn1cc(CNc2ccc(F)c(N3CCCS3(=O)=O)c2)cn1	-7.546%	-3.178%	11.78%
CC(=O)N1CCC2(CC1)CN(CC1CC1)c1ccc(F)cc12	-12.28%	2.351%	-58.56%
CC(=O)Nc1ccc(F)c(S(=O)(=O)NC(C)(C)C)c1	1.76%	3.226%	-8.764%
Cc1cccc(S(=O)(=O)N2C[C@H]3C[C@H](C(=O)N(C)C)[C@@H](C2)O3)c1	-2.571%	-	-
CCN1CCC(c2nc3ccc(NC4CCC4)cn3n2)CC1.O=C(O)C(F)(F)F	-	-	-14.43%
Cc1cccc(CN2CCc3ncnc(Oc4cccnc4)c3CC2)n1	8.967%	5.008%	-25.82%
COc1ccc(Cl)cc1CCNC(=O)N(C)CC1CCOC1 (stereo not given)	-8.29%	-3.913%	-1.935%
O=C(O)c1ccc(Cc2cccc(F)c2)nc1	2.966%	2.331%	14.28%
CCN1CCN(C2CCN(Cc3nc4ccccc4o3)CC2)C1=O	17.87%	1.538%	-3.603%
CN1CCC2(C=C(C(=O)N3CCCC3)c3ccccc32)CC1	-16.38%	-20.07%	-
CC(C)c1nc(C2CCCN2C(=O)CCn2cncn2)no1 (stereo not given)	-11.47%	3.345%	8.482%
Cc1ccc(CN(Cc2ccccn2)C(=O)[C@H]2CC[C@@H](N)C2)s1	-18.44%	0.7317%	9.592%
Cc1noc(C)c1CN1CCn2cc(CN3CCCCC3)nc2C1	0.2905%	2.545%	-
Cc1cnc(C)c(N2CCCC(C/C=C/c3ccccc3)(C(=O)O)C2)n1 (stereo not given)	-1.944%	4.087%	-3.04%
Cc1cnn(CC(C)NCc2ccc(OCc3ccncc3)cc2)c1 (stereo not given)	4.689%	6.789%	-2.081%
Cn1ccnc1CNC(=O)c1cncc(C2CCNCC2)n1	-15.55%	-11.86%	-
COc1cc(N2C[C@H]3CN(C(=O)c4cnccn4)C[C@H]3C2)ncn1	-9.326%	7.625%	-
CCC(C(=O)NCCc1nc(C)cc(C(F)(F)F)n1)n1cccn1 (stereo not given)	7.371%	6.796%	21.82%
CCc1nccn1C1CCCN(C(=O)c2ccc3nncn3c2)C1 (stereo not given)	2.577%	-2.169%	5.929%
CCOc1ccc(Cl)c(C(=O)NC(C)C(N)=O)n1 (stereo not given)	-4.538%	6.41%	1.264%
CCCNC(=O)Cn1cc(-c2ccccc2)cn1	7.559%	6.527%	-3.881%
CCS(=O)(=O)NCC(=O)N1CCC(c2cc3ccccc3[nH]2)CC1	-7.322%	-0.3774%	-15.78%
Cc1nn(C)cc1-c1cc(C(=O)N2CCc3ncc(Cl)cc3C2)no1	-6.045%	-12.61%	-9.716%
CSc1ccccc1C(=O)NCCCN1CCc2ccccc2C1	-22.58%	4.7%	8.519%
Cc1cc(N(C)C)nc(C2(C)CCCN2C(=O)c2cnccn2)n1 (stereo not given)	8.982%	3.627%	5.38%
O=C(O)C(F)(F)F.O=C(O)C(F)(F)F.[H][C@@]12CC(=O)N(Cc3cccc(C)n3)[C@@]1([H])CCN2Cc1ccsc1	-	-	-2.707%
CS(=O)(=O)c1ncc(CN2CCN3CCCC3C2)n1CC1CCCCC1 (stereo not given)	-1.596%	-2.17%	-9.928%
CC(NC(=O)C1CCCC1)c1nncn1C(C)C (stereo not given)	-10.22%	12.55%	0.8646%
Cc1cnn(CC2CN(Cc3noc(C4CC4)n3)CCO2)c1 (stereo not given)	-12.29%	5.682%	-30.08%
c1ccc(-c2nc3c(c(NCc4n[nH]c5c4CCC5)n2)CCNC3)cc1	-2.414%	-32.99%	12.98%
CCCc1nc(N2CCCN(c3ncccn3)CC2)c2cnn(C)c2n1	-0.7603%	-1.515%	10.93%
CCC(NC1CSCCSC1)c1ccc(S(C)(=O)=O)cc1 (stereo not given)	0.2098%	2.716%	-5.615%
NC(=O)CN1CCC(NC(=O)Nc2nccs2)CC1	22.42%	4.663%	21.58%
O=C(c1ccccn1)N1CCCN(Cc2nnc(C3CC3)o2)CC1	-3.195%	3.24%	3.706%
NC(=O)NC(CC(=O)N1CCc2sccc2C1)c1cccc(Br)c1 (stereo not given)	0.1305%	1.38%	20.53%
Cn1cncc1CN1C[C@@H]2OCCN(c3ncccn3)[C@@H]2C1	7.567%	4.569%	-
CCc1cnc(N2CC3(CCN(C(=O)c4ccoc4)C3)C2)nc1	-0.7737%	5.455%	28.19%
CN(C)C(=O)Cn1c(C2CC2)c(CN2CCOCC2)c2cccnc21	-6.186%	-5.031%	-23.17%
O=C(NCC1CCOC1)Nc1ccc(Oc2ccc(F)cc2)nc1 (stereo not given)	-11.28%	5.526%	-16.12%
COCC1CN(S(=O)(=O)N(C)C)Cc2ncn(CC3CC3)c21.O=C(O)C(F)(F)F (stereo not given)	-	-	16.41%
CCNc1ncc(C(=O)N[C@@H](C)[C@H](O)c2ccccc2)cn1	-5.387%	-	-1.063%
O=c1c(NCCNCCO)c(N2CCN(Cc3ccccc3)CC2)c1=O	-5.87%	3.544%	-2.458%
COc1cccc(C2CC(=O)Nc3nc(N4CCCCC4)sc32)c1OC (stereo not given)	-928.4%	7.722%	-21.96%
COc1ccc(CNC(=O)NCCc2csc(C)n2)cn1	-1.476%	8.82%	-12.36%
CCn1cc(CN2CCN(CC(O)c3ccc(C)cc3C)CC2)c(C)n1 (stereo not given)	-14.75%	0.1236%	17.24%
c1csc(-c2nc(CN3CCCC3Cn3cccn3)co2)c1 (stereo not given)	-11.66%	1.152%	12.15%
COCCC(=O)N1C[C@H]2CC[C@@H]1CN(C1Cc3ccccc3C1)C2	0.1256%	2.146%	-
CC(O)CNCc1ccc(OCc2ccc3c(c2)OCCO3)cc1 (stereo not given)	25.75%	-2.564%	-
O=C(NCc1cncc2c1CCN(Cc1ccoc1)C2)C1CC1	-6.027%	10.02%	-
CC(CN1CCOCC1)NC1CCN(Cc2cccc(O)c2)CC1 (stereo not given)	-6.42%	4.884%	-19.36%

The first 5 entries again:

| structure | ClpP1P2 | CoaBC | Toxoplasma |
|---|---|---|---|
| `COc1cc(CCC(=O)N2CCC(c3cnccn3)CC2)on1` | -14.95% | -11.34% | 13.37% |
| `Cc1noc(C)c1CN1CC[C@H]2OCC[C@@]2(C(=O)N(C)C)C1` | -3.605% | 3.448% | - |
| `CN(Cc1ccco1)C(=O)C1=NN(C)C(=O)CC1` | -3.546% | 4.685% | -23.91% |
| `CNC(=O)C1CN(C(C)C)CCN1c1ncccn1` (stereo not given) | -21.73% | 3.641% | 16.08% |
| `c1ccc(CN2C[C@H]3CC[C@@H]2CN(Cc2nnc(C4CC4)o2)C3)cc1` | -6.461% | 1.737% | - |

Measurements from “University of Dundee, Small-Polar-MMV Screening Library” (2021), ChEMBL document CHEMBL3988442.